## Primary screen of a compound library

The values are deposited in ChEMBL (CHEMBL3988442, “University of Dundee, Small-Polar-MMV Screening Library” (2021)).

The filed quantity is “Percent Effect” (%). The controls that fix the scale are not given in the record; negative values are as filed. Compounds were drawn at random from those tested, without regard to their results. A dash means the value is not listed here; it may have been measured.

A: 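Whole-cell assay for inhibitors of Mycobacterium tuberculosis growth, labelled Cornell in the record; the read-out is not stated. The concentration is filed as 10 mM, unlikely as a test dose, so the dose is not known. The record gives no direction; compounds strong in two other growth screens of this library score well above the rest, so higher reads as stronger inhibition. Size under these conditions: about 53,000 compounds, about 900 of them at 50% or above in at least one test.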
B: 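Assay on Mycobacterium tuberculosis, filed only as a heat shock assay from Cornell; the read-out is not stated. The concentration is filed as 10 mM, unlikely as a test dose, so the dose is not known. Higher reads as stronger inhibition (inferred: compounds with an IC50 in retests scored well above the rest). About 69,000 compounds were tested under these conditions; 1.4% (about 930) showed 50% or more at least once.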

| # | Compound | A | B |
|---|---|---|---|
| 1 | `CCNC(=O)NC(=O)CN1CCCC1c1nc(C2CCCCC2)co1` (stereo not drawn) | 32.13% | -42.72% |
| 2 | `CCCS(=O)(=O)N1CCC2(CC1)CCn1c(-c3cnn(C)c3)cnc12.O=C(O)C(F)(F)F` | 7.366% | -8.326% |
| 3 | `CCc1[nH]c2c(CNC(=O)C3CCS(=O)(=O)CC3)cc(C)cc2c1C` | 2.02% | 6.736% |
| 4 | `CCC1CN(C)c2ccccc2CN1C(=O)c1c[nH]c(=O)cc1C` (stereo not drawn) | -40.74% | -3.475% |
| 5 | `COc1ccnc(N2CCN(C(=O)c3ccc(Cl)o3)CC2)n1` | - | -3.922% |
| 6 | `COC(=O)CNC(=O)Cn1ccc2cccc(OC)c21` | -14.05% | -2.585% |
| 7 | `O=C(c1ccc(F)cc1Cl)N1CCC(Nc2cccnn2)CC1` | 28.99% | 20.2% |
| 8 | `CNC(=O)c1cccc(CC2COCCN(Cc3ccsc3)C2)n1` (stereo not drawn) | -5.574% | 11.01% |
| 9 | `O=C(Cn1ccc2ccccc21)NCc1ccc(C(=O)O)cc1` | -3.601% | 13.7% |
| 10 | `O=C(CCc1ccccc1Br)NCC(=O)NCc1ccccc1` | 20.11% | -27.87% |
| 11 | `Cc1cc(Cc2ccc(S(=O)(=O)N3CCCC3)cc2)c(=O)[nH]n1` | 17.58% | -12.44% |
| 12 | `CC(C)OC(=O)NCc1ccc(NCc2cnn(C(C)(C)C)c2)cc1` | 20.7% | 5.012% |
| 13 | `[H][C@@]12CN(C(=O)c3ccc(C)nc3)C[C@]1([H])CN(c1ncccn1)C2` | -36.34% | -0.2609% |
| 14 | `CCOc1ncnc2c1CCN(S(=O)(=O)C1CC1)CC2` | -26.78% | -37.07% |
| 15 | `CN(CC(=O)NS(=O)(=O)c1ccsc1)Cc1ccccc1` | -5.6% | 4.135% |
| 16 | `O=C(NCCn1ccc(-c2ccncc2)n1)C1CC1` | 16.92% | -21.5% |
| 17 | `CN(C)C(=O)C1CCN(C2CCN(CC3CC3)CC2)CC1.O=C(O)C(F)(F)F.O=C(O)C(F)(F)F` | 22.03% | 9.318% |
| 18 | `Cc1ccccc1[C@@H]1CN(CCCS(=O)(=O)N(C)C)C[C@H]1C(=O)O` | - | -100.2% |
| 19 | `Cc1cc(-c2nn3c(C(C)C)nnc3s2)on1` | -8.148% | 5.635% |
| 20 | `Cc1ccoc1C(=O)N1CCn2cc(CN3CCCC3)nc2C1` | 2.935% | -3.924% |
| 21 | `CCN1CCN(C(=O)c2cnn(-c3ccccc3Cl)c2)CC1` | 10.13% | 11.02% |
| 22 | `CC1N(CC2CC2)C(=O)COC12CCN(C(=O)c1cnccn1)CC2` (stereo not drawn) | 12.4% | -11% |
| 23 | `Cc1cc(C(F)(F)F)nn1CC(C)C(=O)NC(C)C` (stereo not drawn) | - | -20.42% |
| 24 | `c1cnnc(-c2noc(COCC3CCCO3)n2)c1` (stereo not drawn) | -58.6% | -13.56% |
| 25 | `COc1ccccc1NC(=O)NCCCC(=O)Nc1cn[nH]c1` | - | -1.796% |
| 26 | `Cc1cccc(C2CCCN2Cc2nc(N)nc(N(C)C)n2)c1C` (stereo not drawn) | 44.67% | 47.4% |
| 27 | `CC(C)N(C)Cc1n[nH]c2c1CCN(C(=O)c1cc[nH]n1)C2` | -26.98% | -13.37% |
| 28 | `Cc1nccn1C1CCCN(C(=O)Cn2ccc(=O)n(C)c2=O)C1` (stereo not drawn) | - | 7.011% |
| 29 | `CC1CN(CC(=O)N2CCCC2)CCN1c1ccc2nncn2n1` (stereo not drawn) | -16.86% | 15.46% |
| 30 | `COc1ccc(F)cc1C(C(=O)O)N1CCSCC1` (stereo not drawn) | 1.658% | -1.626% |
| 31 | `Cc1c[nH]nc1C1CCCCN1C(=O)Cn1cc(Cl)cn1` (stereo not drawn) | - | -9.381% |
| 32 | `Cn1cccc1C(=O)N1CCC(O)(CN2CCc3ccccc3C2)C1` (stereo not drawn) | - | -14.67% |
| 33 | `COCCC1(CO)CCCN(Cc2cc(C(F)(F)F)ccc2F)C1` (stereo not drawn) | 11.98% | -31.13% |
| 34 | `Cn1ncc2c(N3CCN(C(=O)c4ccsc4)CC3)ncnc21` | -34.24% | -3.97% |
| 35 | `COCCCSc1ccc(NCc2cscn2)cc1` | 25.2% | 13.27% |
| 36 | `c1ccc2sc(N3CCCN(c4ncnc5c4CCNC5)CC3)nc2c1` | 11.61% | 53.45% |
| 37 | `O=C(Cn1cc(-c2ccccc2)ncc1=O)NC1CCCCC1` | 21.93% | 8.223% |
| 38 | `CCN1CCN(c2nc(O)cc(Cc3ccccc3F)n2)CC1` | 2.226% | 15.13% |
| 39 | `CCOCCCNS(=O)(=O)c1ccc2c(c1)NC(=O)C(C)O2` (stereo not drawn) | -39.53% | -18.06% |
| 40 | `O=C(O)C(F)(F)F.OCCN1CCOC2(CCCN(c3ncc(F)cn3)C2)C1` (stereo not drawn) | -17.98% | 11.49% |
| 41 | `O=C(NCCc1cc(F)ccc1F)NC(CO)c1ccccc1` (stereo not drawn) | -22.51% | -28.64% |
| 42 | `[H][C@@]12CCN(Cc3ccoc3)C[C@]1([H])[C@@H](CNC(=O)N(C)C)OC2` | -26.49% | -9.804% |
| 43 | `O=C(CN1CCOC(c2ccccc2C(F)(F)F)C1)NC1CC1` (stereo not drawn) | -0.3395% | -10.34% |
| 44 | `COc1ncccc1CN1CCC2(CC1)CN(c1ccccn1)CCO2.O=C(O)C(F)(F)F.O=C(O)C(F)(F)F.O=C(O)C(F)(F)F` | 7.721% | -44.24% |
| 45 | `N#Cc1cccnc1N1CCCC(CO)(Cc2ccccc2F)C1` (stereo not drawn) | 27.96% | -6.598% |
| 46 | `Cc1ccn2c(=O)cc(CSCC(=O)Nc3nnc(C(C)C)s3)nc2c1` | - | -21.69% |
| 47 | `CCN1C(=O)CCCC12CCCN(C(=O)c1ccsc1)C2` (stereo not drawn) | 1.004% | -1.775% |
| 48 | `CCS(=O)(=O)N1CCOC2(CCCN(c3ncc(F)cn3)C2)C1` (stereo not drawn) | -6.834% | 10.76% |
| 49 | `O=C(O)C(F)(F)F.[H][C@@]12OCCN(S(=O)(=O)CCC)[C@@]1([H])CC[C@H]2OCc1ccccn1` | 34.53% | 3.753% |
| 50 | `CC[S+](CC)[c-]1c(=O)[nH]c(=O)n(Cc2ccc(F)cc2)c1=O` | 8.585% | -0.1971% |
| 51 | `COc1ccc(C[C@H]2CN(C(=O)c3ccn(C)n3)CC[C@H]2OC)cc1` | 34.86% | -8.487% |
| 52 | `O=C(CC1CC1)NCc1cn2c(n1)CN(CC1CC1)CC2.O=C(O)C(F)(F)F` | - | 7.876% |
| 53 | `CN(C)Cc1nnc(C2CCN(C(=O)CCc3cccs3)CC2)n1C` | - | 6.307% |
| 54 | `O=C(O)CCc1nc2nccc(C(F)(F)F)n2n1` | -14% | -5.238% |
| 55 | `Cc1cccnc1CSCCCNS(C)(=O)=O` | -5.356% | 2.699% |
| 56 | `COc1ncccc1CNCc1c(C(C)C)nn(C)c1OC` | 20.17% | 2.855% |

Once more, the final 6:

Result for COc1ccc(C[C@H]2CN(C(=O)c3ccn(C)n3)CC[C@H]2OC)cc1 was A: 34.86%; B: -8.487%.
Result for O=C(CC1CC1)NCc1cn2c(n1)CN(CC1CC1)CC2.O=C(O)C(F)(F)F was B: 7.876%.
Result for CN(C)Cc1nnc(C2CCN(C(=O)CCc3cccs3)CC2)n1C was B: 6.307%.
Result for O=C(O)CCc1nc2nccc(C(F)(F)F)n2n1 was A: -14%; B: -5.238%.
Result for Cc1cccnc1CSCCCNS(C)(=O)=O was A: -5.356%; B: 2.699%.
Result for COc1ncccc1CNCc1c(C(C)C)nn(C)c1OC was A: 20.17%; B: 2.855%.